The test addresses Human serum albumin (human (endogenous in serum)), P02768. Description: affinity purification with mass spectrometry; IgA and albumin purified from the sera of healthy individuals, digested, LC-MS/MS. Conditions: remark: other sources report otherwise.

These are yes or no findings as the source states them, for the method shown. In cells and extracts the contact can be indirect. These calls come from enrichment with a bait or labelling near it, and not all partners need be listed. No binding means not detected with the bait.

This passage reports binding results from article PMC7916671.

B1: Alpha-2-macroglobulin, P01023 24-1474 (protein)
chain: SVSGKPQYMVLVPSLLHTETTEKGCVLLSYLNETVTVSASLESVRGNRSLFTDLEAENDVLHCVAFAVPKSSSNEEVMFLTVQVKGPTQEFKKRTTVMVKNEDSLVFVQTDKSIYKPGQTVKFRVVSMDENFHPLNELIPLVYIQDPKGNRIAQWQSFQLEGGLKQFSFPLSSEPFQGSYKVVVQKKSGGRTEHPFTVEEFVLPKFEVQVTVPKIITILEEEMNVSVCGLYTYGKPVPGHVTVSICRKYSDASDCHGEDSQAFCEKFSGQLNSHGCFYQQVKTKVFQLKRKEYEMKLHTEAQIQEEGTVVELTGRQSSEITRTITKLSFVKVDSHFRQGIPFFGQVRLVDGKGVPIPNKVIFIRGNEANYYSNATTDEHGLVQFSINTTNVMGTSLTVRVNYKDRSPCYGYQWVSEEHEEAHHTAYLVFSPSKSFVHLEPMSHELPCGHTQTVQAHYILNGGTLLGLKKLSFYYLIMAKGGIVRTGTHGLLVKQEDMKGHFSISIPVKSDIAPVARLLIYAVLPTGDVIGDSAKYDVENCLANKVDLSFSPSQSLPASHAHLRVTAAPQSVCALRAVDQSVLLMKPDAELSASSVYNLLPEKDLTGFPGPLNDQDNEDCINRHNVYINGITYTPVSSTNEKDMYSFLEDMGLKAFTNSKIRKPKMCPQLQQYEMHGPEGLRVGFYESDVMGRGHARLVHVEEPHTETVRKYFPETWIWDLVVVNSAGVAEVGVTVPDTITEWKAGAFCLSEDAGLGISSTASLRAFQPFFVELTMPYSVIRGEAFTLKATVLNYLPKCIRVSVQLEASPAFLAVPVEKEQAPHCICANGRQTVSWAVTPKSLGNVNFTVSAEALESQELCGTEVPSVPEHGRKDTVIKPLLVEPEGLEKETTFNSLLCPSGGEVSEELSLKLPPNVVEESARASVSVLGDILGSAMQNTQNLLQMPYGCGEQNMVLFAPNIYVLDYLNETQQLTPEIKSKAIGYLNTGYQRQLNYKHYDGSYSTFGERYGRNQGNTWLTAFVLKTFAQARAYIFIDEAHITQALIWLSQRQKDNGCFRSSGSLLNNAIKGGVEDEVTLSAYITIALLEIPLTVTHPVVRNALFCLESAWKTAQEGDHGSHVYTKALLAYAFALAGNQDKRKEVLKSLNEEAVKKDNSVHWERPQKPKAPVGHFYEPQAPSAEVEMTSYVLLAYLTAQPAPTSEDLTSATNIVKWITKQQNAQGGFSSTQDTVVALHALSKYGAATFTRTGKAAQVTIQSSGTFSSKFQVDNNNRLLLQQVSLPELPGEYSMKVTGEGCVYLQTSLKYNILPEKEEFPFALGVQTLPQTCDEPKAHTSFQISLSVSYTGSRSASNMAIVDVKMVSGFIPLKPTVKMLERSNHVSRTEVSSNHVLIYLDKVSNQTLSLFFTVLQDVPVRDLKPAIVKVYDYYETDEFAIAEYNAPCSKDLGNA
B1: the binding entry is reported as “no binding”.
